± gives the standard deviation of the averaged measurements. The list shows a part of the results.
Compound: Nc1nc2c(ncn2[C@@H]2O[C@H](COP(=O)(O)OP(=O)(O)OP(=O)(O)O)[C@@H](O)[C@H]2O)c(=O)[nH]1 [guanosine triphosphate]
Assay: NP40-soluble protein abundance relative to vehicle (solubility fold change) (ratio); higher = more soluble protein in presence of GTP
Description: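 Solubility proteome profiling in Jurkat crude lysate. Lysate was treated with Mg-GTP (0.1-10 mM) for 10 min at room temperature and 3 min at 37 °C, then solubilised with 0.8% NP40 and benzonase, followed by ultracentrifugation. Proteins were quantified by TMT10 LC-MS/MS; the value is the NP40-soluble abundance relative to the NP40-processed vehicle, from 3 independent experiments.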

Protein sequences, listed by entry. Tags and fused reporters are not part of them. Lines headed by an entry give the natural chain unless they say otherwise; changes in a name come on top.
UniProt Q92896: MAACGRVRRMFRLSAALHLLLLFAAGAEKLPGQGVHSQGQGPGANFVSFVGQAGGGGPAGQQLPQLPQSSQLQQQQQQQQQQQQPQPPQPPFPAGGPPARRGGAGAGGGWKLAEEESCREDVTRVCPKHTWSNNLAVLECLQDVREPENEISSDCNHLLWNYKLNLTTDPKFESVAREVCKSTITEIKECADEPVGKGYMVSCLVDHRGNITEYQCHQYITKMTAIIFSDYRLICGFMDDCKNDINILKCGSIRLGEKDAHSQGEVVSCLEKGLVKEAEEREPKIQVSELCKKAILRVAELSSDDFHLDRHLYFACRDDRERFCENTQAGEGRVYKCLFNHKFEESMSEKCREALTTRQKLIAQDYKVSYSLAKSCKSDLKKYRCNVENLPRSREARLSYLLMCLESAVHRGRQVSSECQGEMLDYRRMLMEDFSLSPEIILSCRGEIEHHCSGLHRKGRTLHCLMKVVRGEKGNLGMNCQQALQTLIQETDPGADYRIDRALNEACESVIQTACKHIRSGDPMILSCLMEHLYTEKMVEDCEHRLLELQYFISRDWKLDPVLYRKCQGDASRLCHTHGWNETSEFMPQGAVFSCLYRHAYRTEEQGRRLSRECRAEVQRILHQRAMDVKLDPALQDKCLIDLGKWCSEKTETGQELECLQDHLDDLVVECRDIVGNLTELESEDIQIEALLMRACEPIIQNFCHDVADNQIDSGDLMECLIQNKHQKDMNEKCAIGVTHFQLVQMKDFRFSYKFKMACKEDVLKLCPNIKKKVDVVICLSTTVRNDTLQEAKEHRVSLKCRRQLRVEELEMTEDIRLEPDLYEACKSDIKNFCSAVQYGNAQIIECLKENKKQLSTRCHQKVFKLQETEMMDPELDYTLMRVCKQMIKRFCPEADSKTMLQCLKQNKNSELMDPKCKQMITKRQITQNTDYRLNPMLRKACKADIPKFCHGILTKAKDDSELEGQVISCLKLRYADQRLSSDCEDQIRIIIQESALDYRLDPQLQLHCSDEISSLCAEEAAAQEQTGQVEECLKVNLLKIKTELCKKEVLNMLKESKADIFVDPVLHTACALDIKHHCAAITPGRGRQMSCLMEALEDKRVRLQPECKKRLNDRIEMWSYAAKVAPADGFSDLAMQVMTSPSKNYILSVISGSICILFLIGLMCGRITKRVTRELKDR
UniProt Q96G25: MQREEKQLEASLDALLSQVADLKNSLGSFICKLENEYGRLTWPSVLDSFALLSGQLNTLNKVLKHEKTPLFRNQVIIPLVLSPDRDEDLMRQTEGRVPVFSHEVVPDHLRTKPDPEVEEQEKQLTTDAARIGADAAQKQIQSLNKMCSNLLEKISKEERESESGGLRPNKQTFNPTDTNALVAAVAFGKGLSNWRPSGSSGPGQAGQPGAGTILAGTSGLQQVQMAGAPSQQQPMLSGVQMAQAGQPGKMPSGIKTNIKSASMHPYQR
UniProt Q8WVM8, whole entry, looked up: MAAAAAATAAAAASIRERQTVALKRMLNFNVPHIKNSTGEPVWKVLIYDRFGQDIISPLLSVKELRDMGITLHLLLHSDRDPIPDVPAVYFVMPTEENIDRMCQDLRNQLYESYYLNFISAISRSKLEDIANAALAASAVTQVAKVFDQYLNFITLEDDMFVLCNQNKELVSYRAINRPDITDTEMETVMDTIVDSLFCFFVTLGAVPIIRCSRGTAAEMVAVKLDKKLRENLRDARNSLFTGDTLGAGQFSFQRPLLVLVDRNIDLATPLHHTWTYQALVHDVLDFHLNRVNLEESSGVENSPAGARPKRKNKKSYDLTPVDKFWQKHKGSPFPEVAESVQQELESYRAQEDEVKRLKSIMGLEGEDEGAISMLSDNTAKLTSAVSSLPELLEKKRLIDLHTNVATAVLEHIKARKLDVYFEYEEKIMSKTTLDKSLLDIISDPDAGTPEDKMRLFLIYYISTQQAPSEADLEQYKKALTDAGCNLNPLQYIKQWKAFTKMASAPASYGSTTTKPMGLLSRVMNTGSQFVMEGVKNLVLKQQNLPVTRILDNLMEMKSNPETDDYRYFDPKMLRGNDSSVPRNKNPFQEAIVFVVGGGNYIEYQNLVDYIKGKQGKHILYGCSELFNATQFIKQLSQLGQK

Q: Which results are given for UniProt Q92896 and related entries?
A: NP40-soluble protein abundance (concentration: 0.1mM): 0.952 ± 0.059; NP40-soluble protein abundance (concentration: 0.5mM): 0.943 ± 0.053; NP40-soluble protein abundance (concentration: 1mM): 0.962 ± 0.057; NP40-soluble protein abundance (concentration: 2mM): 0.922 ± 0.062; NP40-soluble protein abundance (concentration: 4mM): 0.923 ± 0.064; NP40-soluble protein abundance (concentration: 6mM): 0.926 ± 0.062; NP40-soluble protein abundance (concentration: 8mM): 0.948 ± 0.043; NP40-soluble protein abundance (concentration: 10mM): 0.938 ± 0.057

Q: What does the source list for UniProt Q96F24 and related entries?
A: NP40-soluble protein abundance (concentration: 0.1mM): 1 ± 0.026; NP40-soluble protein abundance (concentration: 0.5mM): 0.933 ± 0.033; NP40-soluble protein abundance (concentration: 1mM): 1.04 ± 0.089; NP40-soluble protein abundance (concentration: 2mM): 1.08 ± 0.049; NP40-soluble protein abundance (concentration: 4mM): 1.04 ± 0.076; NP40-soluble protein abundance (concentration: 6mM): 1.02 ± 0.024; NP40-soluble protein abundance (concentration: 8mM): 1.11 ± 0.015; NP40-soluble protein abundance (concentration: 10mM): 1.13 ± 0.078

Q: What does the source list for UniProt Q96G25 and related entries?
A: NP40-soluble protein abundance (concentration: 0.1mM): 1.02 ± 0.06; NP40-soluble protein abundance (concentration: 0.5mM): 0.981 ± 0.017; NP40-soluble protein abundance (concentration: 1mM): 1.08 ± 0.027; NP40-soluble protein abundance (concentration: 2mM): 1.07 ± 0.07; NP40-soluble protein abundance (concentration: 4mM): 1.11 ± 0.22; NP40-soluble protein abundance (concentration: 6mM): 1.06 ± 0.19; NP40-soluble protein abundance (concentration: 8mM): 1.13 ± 0.14; NP40-soluble protein abundance (concentration: 10mM): 1.17 ± 0.21

Q: How did the NP40-soluble protein abundance (concentration: 0.1mM) turn out when UniProt Q8WXA9-2 was run?
A: The NP40-soluble protein abundance was 1.02 ± 0.067.

Q: And the NP40-soluble protein abundance (concentration: 0.5mM)?
A: Its NP40-soluble protein abundance is 1.11 ± 0.044.

Q: What about the NP40-soluble protein abundance (concentration: 1mM) of the same target?
A: The NP40-soluble protein abundance was 1.14 ± 0.077.

Q: What about the NP40-soluble protein abundance (concentration: 2mM) of the same target?
A: The NP40-soluble protein abundance was 1.12 ± 0.082.

Q: And the NP40-soluble protein abundance (concentration: 4mM)?
A: The NP40-soluble protein abundance was 1.15 ± 0.067.

Q: And the NP40-soluble protein abundance (concentration: 6mM)?
A: Its NP40-soluble protein abundance is 1.11 ± 0.07.

Q: And the NP40-soluble protein abundance (concentration: 8mM)?
A: The NP40-soluble protein abundance was 1.18 ± 0.035.

Q: And the NP40-soluble protein abundance (concentration: 10mM)?
A: The NP40-soluble protein abundance was 1.18 ± 0.1.

Q: How did the NP40-soluble protein abundance (concentration: 0.1mM) turn out when SCFD1 (UniProt Q8WVM8) was run?
A: Its NP40-soluble protein abundance is 1.08 ± 0.066.

Q: What about the NP40-soluble protein abundance (concentration: 0.5mM) of the same target?
A: The NP40-soluble protein abundance was 1.04 ± 0.05.

Q: What about the NP40-soluble protein abundance (concentration: 1mM) of the same target?
A: The NP40-soluble protein abundance was 1.04 ± 0.076.

Q: And the NP40-soluble protein abundance (concentration: 2mM)?
A: The NP40-soluble protein abundance was 1.01 ± 0.053.

Q: What about the NP40-soluble protein abundance (concentration: 4mM) of the same target?
A: Its NP40-soluble protein abundance is 0.981 ± 0.027.

Q: What about the NP40-soluble protein abundance (concentration: 6mM) of the same target?
A: Its NP40-soluble protein abundance is 0.958 ± 0.047.

Q: What about the NP40-soluble protein abundance (concentration: 8mM) of the same target?
A: The NP40-soluble protein abundance was 0.933 ± 0.01.

Q: What about the NP40-soluble protein abundance (concentration: 10mM) of the same target?
A: The NP40-soluble protein abundance was 0.9325 ± 0.0018.
